Measured values as given in publication PMC4391915.
No constants are given. Whether binding was seen depends on the method and setting. A result given as binding can be weak or reduced; the word gives no strength. For some assays here: Tags and fused reporters may be left off the sequences shown.

Tests used:
[1] = molecular target: pM-RXRWT (Gal4 DNA-binding domain fused to full-length human RXR) (human); experiment: two-hybrid; mammalian 2-hybrid in HepG2 cells; pVP16-VDR as prey, pM-RXR as bait; 5XGal4-TATA-Luc reporter; 120 nM 1,25D3 for 24 h; with cotransfected pSG5-SRC1
[2] = molecular target: pM-SRC1(241-386) (Gal4 DNA-binding domain fused to the NR box of human SRC1) (human); experiment: two-hybrid; mammalian 2-hybrid in HepG2 cells; pVP16-VDR as prey, pM-SRC1, pM-GRIP1 or pM-ACTR as bait; 5XGal4-TATA-Luc reporter; 120 nM 1,25D3 for 24 h; with cotransfected pCDNA-RXRWT
[3] = molecular target: pM-RXRWT (Gal4 DNA-binding domain fused to full-length human RXR) (human); experiment: two-hybrid; mammalian 2-hybrid in HepG2 cells; pVP16-VDR as prey, pM-RXR (Gal4 DNA-binding domain fusion) as bait; 5XGal4-TATA-Luc reporter; 120 nM 1,25D3 for 24 h; without cotransfected pSG5-SRC1
[4] = molecular target: pM-SRC1(241-386) (Gal4 DNA-binding domain fused to the NR box of human SRC1) (human); experiment: two-hybrid; mammalian 2-hybrid in HepG2 cells; pVP16-VDR as prey, pM-SRC1, pM-GRIP1 or pM-ACTR (NR box fused to the Gal4 DNA-binding domain) as bait; 5XGal4-TATA-Luc reporter; 120 nM 1,25D3 for 24 h; without cotransfected pCDNA-RXRWT
[5] = molecular target: recombinant full-length RXRWT (polyhistidine-tagged) (human); experiment: native gel or EMSA; 100 ng recombinant VDR and 100 ng recombinant RXRWT with 1 pmol Cy5-labelled VDRE oligo (canonical or CYP3A4 XREM); 100 nM 1,25D3 or ethanol; 25°C; 100 mM KCl, 10 mM HEPES, 20 mM MgCl2, pH 7.6; 6% native gel; the complex is seen on the DNA; both purified

Row | binding [1] | binding [2] | binding [3] | binding [4] | binding [5] | Binder
1 | binds | binds | binds | binds |  | pVP16-human VDR (human vitamin D receptor) (receptor, UniProt P11473 1-427) MEAMAASTSLPDPGDFDRNVPRICGVCGDRATGFHFNAMTCEGCKGFFRRSMKRKALFTCPFNGDCRITKDNRRHCQACRLKRCVDIGMMKEFILTDEEVQRKREMILKRKEEEALKDSLRPKLSEEQQRIIAILLDAHHKTYDPTYSDFCQFRPPVRVNDGGGSHPSRPNSRHTPSFSGDSSSSCSDHCITSSDMMDSSSFSNLDLSEEDSDDPSVTLELSQLSMLPHLADLVSYSIQKVIGFAKMIPGFRDLTSEDQIVLLKSSAIEVIMLRSNESFTMDDMSWTCGNQDYKYRVSDVTKAGHSLELIEPLIKFQVGLKKLNLHEEEHVLLMAICIVSPDRPGVQDAALIEAIQDRLSNTLQTYIRCRHPPPGSHLLYAKMIQKLADLRSLNEEHSKQYRCLSFQPECSMKLTPLVLEVFGNEIS
2 |  |  |  |  | binds | recombinant full-length human VDR (pET32a, polyhistidine-tagged) (receptor, UniProt P11473 1-427) MEAMAASTSLPDPGDFDRNVPRICGVCGDRATGFHFNAMTCEGCKGFFRRSMKRKALFTCPFNGDCRITKDNRRHCQACRLKRCVDIGMMKEFILTDEEVQRKREMILKRKEEEALKDSLRPKLSEEQQRIIAILLDAHHKTYDPTYSDFCQFRPPVRVNDGGGSHPSRPNSRHTPSFSGDSSSSCSDHCITSSDMMDSSSFSNLDLSEEDSDDPSVTLELSQLSMLPHLADLVSYSIQKVIGFAKMIPGFRDLTSEDQIVLLKSSAIEVIMLRSNESFTMDDMSWTCGNQDYKYRVSDVTKAGHSLELIEPLIKFQVGLKKLNLHEEEHVLLMAICIVSPDRPGVQDAALIEAIQDRLSNTLQTYIRCRHPPPGSHLLYAKMIQKLADLRSLNEEHSKQYRCLSFQPECSMKLTPLVLEVFGNEIS
